Values from PubChem BioAssay AID504804 (Drosophila RNAi Screening Center, 2011).

Assay: 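Fly genes whose loss lessens doxorubicin-driven cell death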 (primary screen)
Cell system: Drosophila Kc cells
Reagent: long dsRNA against Drosophila genes, 0.5 µg dsRNA per well
Time to read-out: 96 h (48 h knock-down, then 48 h drug)
Treatment: doxorubicin 5 µg/ml for 48 h, added 48 h after dsRNA
Measured: 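Viability measured as cellular ATP by luminescence after 48 h knock-down then 48 h doxorubicin at 5 µg/ml; unnormalised plate counts for each replicate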
Reading the numbers: raw ATP luminescence: higher = more viable cells, protection from doxorubicin
Hit rule: 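z-score of 2 or more over plate mean in both duplicates, retained only when retests and separate dsRNAs confirm the protection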
In all, the deposit lists about 19,000 reagents; below is a random part of those that have a named target and a result. In the full data, 47 (0.25%) are marked active. 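Signals are raw, not normalised; exact z-scores behind calls not deposited; actives needed confirmation, so some wells reaching 2 SD are inactive.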 A plus sign joins genes that one reagent is predicted to hit.

no.	predicted target	amplicon	raw ATP luminescence, replicate 1	raw ATP luminescence, replicate 2	call
1	CG10345	DRSC14138	32887	43957	inactive
2	CG13312	DRSC09983	74447	83140	inactive
3	CG31826	DRSC03357	70573	83000	inactive
4	Rep	DRSC07526	62420	64983	inactive
5	fwe	DRSC09398	87917	88203	inactive
6	fwe	DRSC10594	26603	20030	inactive
7	inaF-B	DRSC18903	1.98e5	2.07e5	inactive
8	fred	DRSC00349	26430	36290	inactive
9	fred	DRSC00599	28953	25260	inactive
10	fred	DRSC00601	27650	26783	inactive
11	fred	DRSC00602	25557	30873	inactive
12	Cpr67Fb	DRSC10314	85513	77800	inactive
13	Gyg	DRSC03850	61860	53140	inactive
14	Gyg	DRSC04556	51487	49503	inactive
15	TER94	DRSC07560	53433	37213	inactive
16	Lim1	DRSC18677	45820	52470	inactive
17	CG5131	DRSC02817	58637	70697	inactive
18	CG34406 (retired record)	DRSC00523	1.10e5	78820	inactive
19	CG34406 (retired record)	DRSC00606	19317	18773	inactive
20	CG14537	DRSC02395	39467	71120	inactive
21	TotC	DRSC13449	1.52e5	1.80e5	inactive
22	CG14212	DRSC19568	3.91e5	3.31e5	inactive
23	CG12935	DRSC06248	60503	57450	inactive
24	mRpS18C	DRSC16538	40250	36350	inactive

2 entries from above in another layout:
| predicted target | amplicon | raw ATP luminescence, replicate 1 | raw ATP luminescence, replicate 2 | call |
| --- | --- | --- | --- | --- |
| fred | DRSC00601 | 27650 | 26783 | inactive |
| fred | DRSC00602 | 25557 | 30873 | inactive |

Further reagents follow:
no.	predicted target	amplicon	raw ATP luminescence, replicate 1	raw ATP luminescence, replicate 2	call
25	cid	DRSC05429	1.03e5	1.15e5	inactive
26	CG14282	DRSC14763	53480	64360	inactive
27	Mcm2	DRSC16734	52163	58213	inactive
28	CG14302	DRSC14781	53620	50790	inactive
29	CG13813	DRSC10068	62413	70357	inactive
30	CSN1b	DRSC11108	18563	23863	inactive
31	nht	DRSC01976	62107	72793	inactive
32	CG11414	DRSC04110	74650	62493	inactive
33	CG42843 (retired record)	DRSC01118	3.29e5	3.19e5	inactive
34	CG42843 (retired record)	DRSC02231	49920	73390	inactive
35	CG42843 (retired record)	DRSC02233	46967	69623	inactive
36	Dek	DRSC07418	63890	60223	inactive
37	CG32591	DRSC19063	1.87e5	1.82e5	inactive
38	CG14285	DRSC14766	51790	43150	inactive
39	Jon99Fii + Jon99Cii + Jon99Ciii + 1 more	DRSC15298	48030	57880	inactive
40	CG4884	DRSC15671	48890	59640	inactive
41	Atg9	DRSC06848	61763	68693	inactive
42	Taf12	DRSC16879	58047	28500	inactive
43	NPFR	DRSC12173	74790	66213	inactive
44	ACC	DRSC06059	23057	46930	inactive
45	ACC	DRSC07249	61510	58963	inactive
46	Cog6	DRSC06806	57167	45030	inactive
47	CG7058	DRSC20021	3.65e5	3.38e5	inactive
48	CG14853	DRSC14977	90690	83010	inactive
49	comm3	DRSC09993	55683	54003	inactive
50	comm3	DRSC09994	41843	40273	inactive
51	comm3	DRSC09995	40760	41653	inactive
52	salm	DRSC03606	40187	82040	inactive
53	zpg	DRSC09702	76523	75173	inactive
54	RpL24-like	DRSC16111	66157	50940	inactive
55	CG14069	DRSC02372	61117	84433	inactive
56	Cep97	DRSC00637	88367	76070	inactive
57	vex	DRSC19481	3.84e5	3.97e5	inactive
58	vex	DRSC19651	3.75e5	3.71e5	inactive
